The values that follow come from patent US20050096288.

Construct, isoform or probe ends are uncertain for at least one entry. Negatives hold for the conditions tested.

The test system of this series is HDL (Homo sapiens). Kind of series: EMSA. The conditions noted are these: HDL binds none of the oligos; purified native protein; protein details: plasma high-density lipoprotein particle; label: 32P. (Mobility shift assays separate free from complexed probe on a gel.)

On to “GGGAAACCGAAACTG (double strand) [ISRE oligonucleotide]”, for which the binding result is recorded as “no binding”. The value for “GTCCAATTGGTC (double strand) [FAS oligonucleotide]” was “no binding”.
